The target of one experiment is T1, Myc-14-3-3θ (rat) (UniProt P68255).
T1 sequence: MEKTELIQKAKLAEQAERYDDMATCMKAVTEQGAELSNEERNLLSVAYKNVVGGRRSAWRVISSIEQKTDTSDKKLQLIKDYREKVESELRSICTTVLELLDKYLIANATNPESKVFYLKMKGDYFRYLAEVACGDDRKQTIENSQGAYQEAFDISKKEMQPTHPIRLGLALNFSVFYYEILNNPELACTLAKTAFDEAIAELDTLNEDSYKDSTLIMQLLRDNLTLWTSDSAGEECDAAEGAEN
The experiment can be described thus: co-IP; HEK293T cells over-expressing Myc-14-3-3θ and Eag1; IP with anti-Myc antibody; immunoblot. In general terms: In western blotting, separated proteins are transferred to a membrane and probed.

Protein sequences, listed by entry. Tags and fused reporters are not part of them. Lines headed by an entry give the natural chain unless they say otherwise; changes in a name come on top. Residues count along the entry.
UniProt Q14999: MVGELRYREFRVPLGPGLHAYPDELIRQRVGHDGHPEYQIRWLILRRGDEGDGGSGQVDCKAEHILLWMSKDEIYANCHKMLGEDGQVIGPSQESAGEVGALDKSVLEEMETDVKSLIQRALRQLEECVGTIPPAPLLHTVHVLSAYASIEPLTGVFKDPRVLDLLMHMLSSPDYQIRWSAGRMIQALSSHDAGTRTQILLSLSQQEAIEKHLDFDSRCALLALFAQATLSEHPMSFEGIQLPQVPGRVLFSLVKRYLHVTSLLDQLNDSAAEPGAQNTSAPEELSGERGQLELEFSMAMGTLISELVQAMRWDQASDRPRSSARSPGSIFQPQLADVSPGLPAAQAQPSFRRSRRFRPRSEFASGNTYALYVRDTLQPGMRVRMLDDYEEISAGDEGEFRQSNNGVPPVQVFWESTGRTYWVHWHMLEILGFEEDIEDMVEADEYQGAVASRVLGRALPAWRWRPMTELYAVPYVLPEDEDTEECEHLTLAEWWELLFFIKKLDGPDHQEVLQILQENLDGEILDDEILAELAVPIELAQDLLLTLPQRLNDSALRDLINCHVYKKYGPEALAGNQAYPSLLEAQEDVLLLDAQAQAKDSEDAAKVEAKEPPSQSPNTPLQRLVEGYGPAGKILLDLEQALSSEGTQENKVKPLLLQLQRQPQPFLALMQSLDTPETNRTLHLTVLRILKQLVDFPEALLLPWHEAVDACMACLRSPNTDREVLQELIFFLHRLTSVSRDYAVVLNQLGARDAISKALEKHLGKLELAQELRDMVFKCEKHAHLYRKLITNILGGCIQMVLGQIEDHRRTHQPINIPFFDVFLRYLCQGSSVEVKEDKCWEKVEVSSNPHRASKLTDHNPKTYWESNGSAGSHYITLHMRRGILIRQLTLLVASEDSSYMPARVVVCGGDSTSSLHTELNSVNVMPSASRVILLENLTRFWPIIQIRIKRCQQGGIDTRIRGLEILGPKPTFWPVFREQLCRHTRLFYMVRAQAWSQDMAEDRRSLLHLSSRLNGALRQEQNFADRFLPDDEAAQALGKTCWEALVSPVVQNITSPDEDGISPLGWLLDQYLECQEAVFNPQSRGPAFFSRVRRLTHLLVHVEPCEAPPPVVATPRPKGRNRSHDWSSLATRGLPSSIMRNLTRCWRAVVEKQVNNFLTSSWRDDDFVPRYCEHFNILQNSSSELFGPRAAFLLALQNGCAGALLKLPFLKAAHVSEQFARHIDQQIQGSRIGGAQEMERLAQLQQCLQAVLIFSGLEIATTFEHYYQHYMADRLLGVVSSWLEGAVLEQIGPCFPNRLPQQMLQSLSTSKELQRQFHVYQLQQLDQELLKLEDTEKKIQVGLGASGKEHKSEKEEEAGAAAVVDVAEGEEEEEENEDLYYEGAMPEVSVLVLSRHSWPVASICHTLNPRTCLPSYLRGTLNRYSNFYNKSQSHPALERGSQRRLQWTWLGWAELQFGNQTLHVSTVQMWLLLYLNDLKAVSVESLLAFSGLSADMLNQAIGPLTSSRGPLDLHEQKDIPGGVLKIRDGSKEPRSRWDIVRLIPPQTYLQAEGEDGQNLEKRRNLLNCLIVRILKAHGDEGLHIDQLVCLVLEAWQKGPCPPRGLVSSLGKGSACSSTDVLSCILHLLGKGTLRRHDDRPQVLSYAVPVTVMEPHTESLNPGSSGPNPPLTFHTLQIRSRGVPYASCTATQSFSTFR
UniProt Q63472: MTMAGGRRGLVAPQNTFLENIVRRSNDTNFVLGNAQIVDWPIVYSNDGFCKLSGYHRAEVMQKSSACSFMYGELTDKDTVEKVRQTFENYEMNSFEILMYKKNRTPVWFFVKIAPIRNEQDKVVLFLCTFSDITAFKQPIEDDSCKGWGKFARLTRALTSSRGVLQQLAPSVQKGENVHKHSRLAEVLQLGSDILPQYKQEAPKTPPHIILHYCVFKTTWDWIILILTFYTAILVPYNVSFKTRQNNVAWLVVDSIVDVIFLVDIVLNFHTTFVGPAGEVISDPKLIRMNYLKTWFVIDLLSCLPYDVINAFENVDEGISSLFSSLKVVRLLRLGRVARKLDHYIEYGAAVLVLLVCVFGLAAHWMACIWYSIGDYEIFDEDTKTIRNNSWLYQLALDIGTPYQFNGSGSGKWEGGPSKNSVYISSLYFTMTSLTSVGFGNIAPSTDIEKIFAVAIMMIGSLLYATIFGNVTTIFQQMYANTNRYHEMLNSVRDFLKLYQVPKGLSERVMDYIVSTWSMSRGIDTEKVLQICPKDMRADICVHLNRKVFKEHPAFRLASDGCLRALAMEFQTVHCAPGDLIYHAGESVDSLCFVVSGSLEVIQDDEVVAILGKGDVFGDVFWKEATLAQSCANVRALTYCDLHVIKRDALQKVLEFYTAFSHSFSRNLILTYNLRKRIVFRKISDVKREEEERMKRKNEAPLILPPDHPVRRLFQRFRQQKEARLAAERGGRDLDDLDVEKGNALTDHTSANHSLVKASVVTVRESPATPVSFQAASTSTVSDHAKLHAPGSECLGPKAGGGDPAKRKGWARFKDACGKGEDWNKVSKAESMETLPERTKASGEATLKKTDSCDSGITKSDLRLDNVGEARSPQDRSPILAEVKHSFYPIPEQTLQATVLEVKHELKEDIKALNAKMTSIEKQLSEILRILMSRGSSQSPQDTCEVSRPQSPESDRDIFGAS
GST-Eag1-N (PAS domain and N-linker; amino acids 1-207): residues 1-207 of Q63472
GST-Eag1-C1-B (CNBHD and proximal post-CNBHD; amino acids 561-722): residues 561-722 of Q63472
UniProt D3ZEF4: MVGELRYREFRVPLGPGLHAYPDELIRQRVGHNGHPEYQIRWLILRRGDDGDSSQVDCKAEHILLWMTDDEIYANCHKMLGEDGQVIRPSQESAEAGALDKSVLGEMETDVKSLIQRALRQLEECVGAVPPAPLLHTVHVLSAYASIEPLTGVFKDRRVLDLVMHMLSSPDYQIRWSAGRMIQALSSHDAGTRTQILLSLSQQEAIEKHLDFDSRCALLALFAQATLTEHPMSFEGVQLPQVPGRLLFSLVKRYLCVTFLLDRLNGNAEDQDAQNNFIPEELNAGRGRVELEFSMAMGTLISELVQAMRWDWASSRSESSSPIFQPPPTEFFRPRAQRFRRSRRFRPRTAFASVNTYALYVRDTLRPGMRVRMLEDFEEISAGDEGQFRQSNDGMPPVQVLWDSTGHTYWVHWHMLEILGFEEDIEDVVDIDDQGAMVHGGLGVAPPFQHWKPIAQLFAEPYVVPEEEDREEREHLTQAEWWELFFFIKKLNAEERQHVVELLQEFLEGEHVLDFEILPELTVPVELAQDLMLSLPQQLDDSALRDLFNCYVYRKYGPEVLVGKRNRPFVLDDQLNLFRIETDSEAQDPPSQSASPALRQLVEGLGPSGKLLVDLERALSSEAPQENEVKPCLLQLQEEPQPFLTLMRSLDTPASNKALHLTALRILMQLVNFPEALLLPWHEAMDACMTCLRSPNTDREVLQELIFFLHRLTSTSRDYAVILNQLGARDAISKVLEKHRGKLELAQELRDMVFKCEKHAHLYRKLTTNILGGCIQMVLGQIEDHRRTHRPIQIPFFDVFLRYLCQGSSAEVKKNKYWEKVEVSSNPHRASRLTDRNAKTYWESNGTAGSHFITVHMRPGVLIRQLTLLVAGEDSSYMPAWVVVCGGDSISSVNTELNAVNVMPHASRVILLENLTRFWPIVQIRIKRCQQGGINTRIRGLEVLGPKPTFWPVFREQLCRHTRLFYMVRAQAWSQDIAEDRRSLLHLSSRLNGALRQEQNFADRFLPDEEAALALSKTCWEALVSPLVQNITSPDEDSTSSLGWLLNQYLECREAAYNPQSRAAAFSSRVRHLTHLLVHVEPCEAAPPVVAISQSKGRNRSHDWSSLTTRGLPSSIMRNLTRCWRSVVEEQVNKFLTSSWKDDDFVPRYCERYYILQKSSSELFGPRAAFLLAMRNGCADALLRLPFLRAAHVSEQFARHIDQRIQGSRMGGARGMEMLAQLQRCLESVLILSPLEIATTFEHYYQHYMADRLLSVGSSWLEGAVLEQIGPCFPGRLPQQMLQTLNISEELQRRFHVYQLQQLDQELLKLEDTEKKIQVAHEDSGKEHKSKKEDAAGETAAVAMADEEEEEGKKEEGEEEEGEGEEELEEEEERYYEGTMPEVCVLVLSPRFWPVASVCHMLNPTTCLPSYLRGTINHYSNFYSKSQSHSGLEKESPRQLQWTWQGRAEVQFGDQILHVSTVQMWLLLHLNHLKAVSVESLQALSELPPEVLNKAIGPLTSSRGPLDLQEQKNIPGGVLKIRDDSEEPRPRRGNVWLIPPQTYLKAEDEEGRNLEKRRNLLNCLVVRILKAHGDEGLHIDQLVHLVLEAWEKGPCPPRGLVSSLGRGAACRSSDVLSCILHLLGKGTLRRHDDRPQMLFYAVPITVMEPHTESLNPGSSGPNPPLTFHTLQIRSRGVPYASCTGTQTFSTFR

Another experiment addresses Myc-tagged Cul7 (UniProt Q14999). The experiment can be described thus: co-IP; HEK293T cells co-expressing Myc-Cul7, Eag1 and YFP-R18 mutant or YFP-difopein; 10 μM MG132 for 12 h; IP with anti-Cul7 antibody, buffer A with 1% Triton X-100, 16 h at 4 °C; immunoblot.
For experiment [1], the target named is GST-Eag1-C1-B (CNBHD and proximal post-CNBHD; amino acids 561-722) (rat) (UniProt Q63472). The experiment can be described thus: pull-down; GST fusion protein-coated glutathione-agarose beads incubated overnight at 4 °C with lysates of cultured rat cortical neurons; immunoblot; only the target purified.
Experiment [2] concerns the target T2, GST-14-3-3θ fusion protein (rat) (UniProt P68255).
T2 sequence: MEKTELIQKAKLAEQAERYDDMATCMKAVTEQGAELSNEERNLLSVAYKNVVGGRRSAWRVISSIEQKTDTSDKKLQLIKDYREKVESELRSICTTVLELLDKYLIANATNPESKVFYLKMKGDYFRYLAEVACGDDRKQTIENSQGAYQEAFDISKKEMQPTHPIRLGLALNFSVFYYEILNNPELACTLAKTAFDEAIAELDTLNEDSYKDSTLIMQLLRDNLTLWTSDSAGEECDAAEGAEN
Described as above.

Experiment [3] addresses GST-Eag1-N (PAS domain and N-linker; amino acids 1-207) (rat) (UniProt Q63472). The experiment is described as follows: pull-down; GST fusion protein-coated glutathione-agarose beads (6-8 μg) incubated overnight at 4 °C with lysates of HEK293T cells expressing Myc-Cul7, alone or co-expressed with YFP-R18 mutant or YFP-difopein; immunoblot with anti-Cul7 and anti-GST; only the target purified.

Experiment [4] addresses GST-Eag1-C1-B (CNBHD and proximal post-CNBHD; amino acids 561-722) (rat) (UniProt Q63472). The experiment is described as above.

No constants are given. Whether binding was seen depends on the method and setting. Binding seen in cells or lysates may run through a third protein. Some results given as binding are weak or reduced against the parent protein; the word gives no strength. For part of these data: Sequences can lack the tags named with a protein.

With “Eag1 (KV10.1; KCNH1) potassium channel, rat, over-expressed (from UniProt Q63472 1-962)”, the binding entry in the experiment with Myc-14-3-3θ (rat) and with Myc-tagged Cul7 was “binds” in each case.
With “endogenous Cul7 in cultured cortical neurons (from UniProt D3ZEF4 1-1692)”, the binding entry in experiment [1] and in experiment [2] was “binds” throughout.
“Myc-tagged Cul7 (from UniProt Q14999 1-1698)”: the binding result in experiment [3] and in experiment [4] was “binds” throughout.
Take “endogenous Cul7 in HEK293T cells (from UniProt Q14999 1-1698)”: the binding result with Myc-14-3-3θ (rat) is recorded as “binds”.
In the case of “endogenous Eag1 in cultured cortical neurons (from UniProt Q63472 1-962)”, the binding entry in experiment [2] was “binds”.

B1: endogenous 14-3-3θ in cultured cortical neurons (protein, UniProt P68255 1-245)
chain: MEKTELIQKAKLAEQAERYDDMATCMKAVTEQGAELSNEERNLLSVAYKNVVGGRRSAWRVISSIEQKTDTSDKKLQLIKDYREKVESELRSICTTVLELLDKYLIANATNPESKVFYLKMKGDYFRYLAEVACGDDRKQTIENSQGAYQEAFDISKKEMQPTHPIRLGLALNFSVFYYEILNNPELACTLAKTAFDEAIAELDTLNEDSYKDSTLIMQLLRDNLTLWTSDSAGEECDAAEGAEN
With B1, in experiment [1], the binding entry is given as “binds”.

(Values after publication PMC9885684.)
